According to PubChem BioAssay AID200 (DTP/NCI, 2004):
The list is a part of this screen's results and no random one: it gathers tests that were run many times, whatever their T/C, doses with no T/C, and many T/C values between a quarter and a half above the control. Further doses and runs are listed elsewhere. T/C is the treated group as % of the vehicle group. Some entries give survivors of the animals treated and no T/C: the source holds a T/C of zero for them, seemingly a mark for toxic or unscored doses. Some survivor counts are full or nearly so, which does not show that the dose was tolerated: survival well below the control is almost never listed, so the zero probably covers shortened survival too. Survivors were counted at the toxicity check, usually on the fifth day, unless a day is given; later deaths do not show. Schedule codes are those of the source, taken here to give the interval after Q, in days (D) or hours (H), and the number of doses after X. Some entries hold several experiments; their values stand side by side, smallest first. For survival time, the PubChem record calls one and a half times the control and up active, and a quarter to a half above the control has no call in these data; cut-offs in other NCI protocols can differ. Some T/C values carry the count of animals alive at the toxicity check (mostly the fifth day); without a count, all were alive then.

System: B6C3F1 mice, B16 melanoma ip, median survival T/C
Assay: NCI In Vivo Anticancer Drug Screen. Data for tumor model B16 Melanoma (intraperitoneal) in B6C3F1 mice
Conditions: T/C endpoint: median survival time, higher T/C = longer survival
Outline: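 Mice bearing transplanted tumor were dosed with compound or vehicle, and survival was recorded. Activity is expressed as the treated-group measurement (T) divided by the vehicle control measurement (C).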

[1] = dose: 200.0 mg/kg/injection, schedule: Q01DX009 (ip), vehicle: Klucel (hydroxypropylcellulose) (HPC)
[2] = dose: 400.0 mg/kg/injection, schedule: Q01DX009 (ip), vehicle: Klucel (hydroxypropylcellulose) (HPC)
[3] = dose: 400.0 mg/kg/injection, schedule: Q01DX009 (ip), vehicle: saline with Tween-80
[4] = dose: 50.0 mg/kg/injection, schedule: Q01DX009 (ip), vehicle: Klucel (hydroxypropylcellulose) (HPC)

In the case of Nc1nc(SCc2ccccc2)c2ncn(C3OC(CO)CC3O)c2n1 (stereo unspecified), the survivor count [1] is reported as 10 of 10 and the survivor count [2] is reported as 9 of 10.
C=C1C(O)C2OC3(CCC(/C=C/C(C)C4CC5(C)SC5C5(OC(CC(C)(O)C(=O)O)CCC5O)O4)O3)CCC2OC1C(O)CC(C)C1OC2(CCCCO2)CCC1C (stereo unspecified) was tested, and the T/C (dose: 10.0 micrograms/kg/injection, schedule: Q01DX009 (ip), vehicle: saline + alcohol) was 131 % of control.
Nc1ccc2ccc(NS(=O)(=O)N3CCCCC3)cc2c1 was tested, and the survivor count [3] was 8 of 10.
In the case of COC1=C(OC)C(=O)C(C/C=C(\C)CC/C=C(\C)CC/C=C(\C)CC/C=C(\C)CC/C=C(\C)CC/C=C(\C)CC/C=C(\C)CC/C=C(\C)CC/C=C(\C)CCC=C(C)C)=C(C)C1=O, the survivor count [3] is reported as 10 of 10.
For C=C1C(=O)OC2/C=C(\CO)C(OC(C)=O)CC(O)/C(C)=C/C(OC(=O)C(C)CC)C12 (stereo unspecified), the T/C (dose: 0.19 mg/kg/injection, schedule: Q01DX009 (ip), vehicle: Klucel (hydroxypropylcellulose) (HPC)) was 130 % of control.
In the case of NC(=S)N/N=C\c1ncccc1OCc1cccc(N)c1, the T/C (dose: 100.0 mg/kg/injection, schedule: Q01DX009 (ip), vehicle: saline with Tween-80, evaluated on day 55) is reported as 125 % of control, the T/C (dose: 100.0 mg/kg/injection, schedule: Q01DX009 (ip), vehicle: saline with Tween-80, evaluated on day 60) is reported as 131 and 134 % of control and the T/C (dose: 200.0 mg/kg/injection, schedule: Q01DX009 (ip), vehicle: saline with Tween-80, evaluated on day 55) is reported as 132 % of control. The T/C (dose: 200.0 mg/kg/injection, schedule: Q01DX009 (ip), vehicle: saline with Tween-80, evaluated on day 60) was 127 and 139 % of control [9 of 10 alive] and the T/C [3] was 132 % of control.
For NC(CO)(CO)CO, the survivor count (dose: 3200.0 mg/kg/injection, schedule: Q01DX009 (ip), vehicle: saline) was 6 of 10 and the survivor count (dose: 3200.0 mg/kg/injection, schedule: Q12HX018 (ip), vehicle: saline) was 2 of 10.
With O=c1oc2c(O)c(O)cc3c(=O)oc4c(O)c(O)cc1c4c23 the T/C (dose: 3.12 mg/kg/injection, schedule: Q01DX009 (ip), vehicle: Klucel (hydroxypropylcellulose) (HPC)) was 125 % of control, the survivor count (dose: 6.25 mg/kg/injection, schedule: Q01DX009 (ip), vehicle: Klucel (hydroxypropylcellulose) (HPC)) was 10 of 10 and the T/C (dose: 12.5 mg/kg/injection, schedule: Q01DX009 (ip), vehicle: Klucel (hydroxypropylcellulose) (HPC)) was 126 and 131 % of control. For the same compound, the survivor count (dose: 25.0 mg/kg/injection, schedule: Q01DX009 (ip), vehicle: Klucel (hydroxypropylcellulose) (HPC)) was 10 of 10, the T/C [4] was 136 % of control [9 of 10 alive] and the survivor count [1] was 9 of 10. For the same compound, the survivor count [2] was 3 of 10 and 10 of 10.
For CN1CCC(c2ccccc2)(c2ccccc2)C(=O)C1, the survivor count (dose: 200.0 mg/kg/injection, schedule: Q01DX009 (ip), vehicle: saline with Tween-80) was 6 of 10 and the survivor count [3] was 0 of 10.
In the case of COC(=O)NC1C(C)OC(OC2C/C=C(/C)C3C=CC4C(OC5CC(OC6CC(O)C(OC7CC(O)C(OC)C(C)O7)C(C)O6)C(O)C(C)O5)C(C)CC(C)C4C3(C)/C(O)=C3\C(=O)OC4(CC(C)C(CO)=CC4/C=C\2C)C3=O)CC1(C)[N+](=O)[O-] (stereo unspecified), the T/C [4] is reported as 130 % of control, the T/C (dose: 100.0 mg/kg/injection, schedule: Q01DX009 (ip), vehicle: Klucel (hydroxypropylcellulose) (HPC)) is reported as 126 and 142 % of control and the survivor count [1] is reported as 7 of 10 and 8 of 10.
In the case of Cn1cnc([N+](=O)[O-])c1Sc1ncn[nH]1, the survivor count (dose: 400.0 mg/kg/injection, schedule: Q01DX009 (ip), vehicle: saline) is reported as 7 of 10 and the survivor count (dose: 400.0 mg/kg/injection, schedule: Q01DX009 (ip), vehicle: suspension in saline) is reported as 0 of 10.
O=C1c2ccccc2CCC1Br (stereo unspecified) was tested, and the survivor count (dose: 6.0 mg/kg/injection, schedule: Q01DX009 (ip), vehicle: DMSO) was 10 of 10, the survivor count (dose: 25.0 mg/kg/injection, schedule: Q01DX009 (ip), vehicle: DMSO) was 7 of 7 and the survivor count (dose: 50.0 mg/kg/injection, schedule: Q01DX009 (ip), vehicle: DMSO) was 5 of 7. The survivor count (dose: 100.0 mg/kg/injection, schedule: Q01DX009 (ip), vehicle: DMSO) was 0 of 7.
